Columns and labels:
MTP = conditions: liver, OVX mice, ornithine 1% blended feed, vs OVX (ornithine non-administration) group
SREBP1c = conditions: liver, OVX mice, ornithine 1% blended feed, vs OVX (ornithine non-administration) group
PPARγ = conditions: liver, OVX mice, ornithine 1% blended feed, vs OVX (ornithine non-administration) group
[1] = system: osteoporosis mouse model (OVX); conditions: OVX mice, ornithine 1% blended feed, vs OVX (ornithine non-administration) group

Cl.NCCC[C@H](N)C(=O)O [ornithine, L-Ornithine Monohydrochloride]
decreased: expression level of MTP (MTP) | expression level of SREBP1c (SREBP1c) | expression level of PPARγ (PPARγ) | liver weight (per body weight) [1]

Reference: US20230140522A1, “COMPOSITION FOR AMELIORATING OR PREVENTING DECREASES IN BONE STRENGTH” (priority 2020, published 2023)
